The values that follow come from article PMC4014986.

By UniProt entry, the sequences of proteins in these tests, tags left out. Residues count along the entry.
UniProt Q9NQX4, residues 1-1109: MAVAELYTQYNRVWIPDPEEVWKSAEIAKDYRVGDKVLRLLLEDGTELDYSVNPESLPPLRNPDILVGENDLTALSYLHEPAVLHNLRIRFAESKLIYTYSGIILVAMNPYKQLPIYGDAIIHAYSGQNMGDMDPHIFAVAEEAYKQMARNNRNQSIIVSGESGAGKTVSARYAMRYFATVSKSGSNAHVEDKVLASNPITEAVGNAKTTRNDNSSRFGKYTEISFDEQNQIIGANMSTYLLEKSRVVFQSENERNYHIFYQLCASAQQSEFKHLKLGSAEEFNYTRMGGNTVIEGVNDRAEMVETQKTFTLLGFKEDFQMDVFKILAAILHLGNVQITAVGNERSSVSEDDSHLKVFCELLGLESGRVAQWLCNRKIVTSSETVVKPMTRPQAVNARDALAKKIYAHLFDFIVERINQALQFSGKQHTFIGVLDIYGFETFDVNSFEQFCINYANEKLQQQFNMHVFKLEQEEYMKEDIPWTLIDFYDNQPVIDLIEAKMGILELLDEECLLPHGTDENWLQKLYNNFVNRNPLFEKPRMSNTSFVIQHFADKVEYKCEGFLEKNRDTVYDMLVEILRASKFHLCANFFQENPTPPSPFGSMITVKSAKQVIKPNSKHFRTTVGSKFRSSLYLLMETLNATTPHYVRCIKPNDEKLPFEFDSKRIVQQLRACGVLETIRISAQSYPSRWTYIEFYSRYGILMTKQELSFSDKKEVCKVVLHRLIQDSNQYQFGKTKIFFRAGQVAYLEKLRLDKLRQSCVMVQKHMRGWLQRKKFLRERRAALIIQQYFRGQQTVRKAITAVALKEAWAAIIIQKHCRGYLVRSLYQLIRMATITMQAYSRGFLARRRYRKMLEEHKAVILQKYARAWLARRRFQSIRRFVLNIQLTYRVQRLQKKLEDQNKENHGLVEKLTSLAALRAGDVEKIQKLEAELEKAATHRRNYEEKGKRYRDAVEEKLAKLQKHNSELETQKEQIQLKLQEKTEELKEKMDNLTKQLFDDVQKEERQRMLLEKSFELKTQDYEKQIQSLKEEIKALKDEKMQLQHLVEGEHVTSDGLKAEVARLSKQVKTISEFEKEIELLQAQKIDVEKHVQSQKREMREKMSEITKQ

Results are given in words; binding and its absence hold for the method and conditions named. Some binding calls cover weakened binding; strength is not graded here.

In this assay the target is Myo5c-HMM with a SNAP-tag and a FLAG tag (Myo5c-HMM-SNAP-FLAG) (human) (UniProt Q9NQX4). The experiment in a line: sequential affinity co-purification (Ni-NTA agarose, then anti-FLAG column); the two differently tagged heavy chains co-expressed with calmodulin in Sf9 cells; Ni-NTA eluted with 250 mM imidazole, Q Sepharose, dialysis, anti-FLAG column eluted with FLAG peptide.

For “Myo5c-HMM with six histidines (Myo5c-HMM-6x-His) (from UniProt Q9NQX4 1-1109) (domain or fragment)”, the binding result is reported as “binds”.
